Measured values reported in article PMC4352044.
Results are given in words; binding and its absence hold for the method and conditions named. In cells and extracts the contact can be indirect. Some binding calls cover weakened binding; strength is not graded here. For some assays here: Tags and fused reporters may be left off the sequences shown.

Legend:
[1] = target: T1, Scc2-12Myc (budding yeast) (UniProt Q04002); assay: co-IP; anti-MYC immunoprecipitation of Scc2-12Myc from yeast lysates, with or without depletion of Scc3-3V5-AID by 1 mM IAA; Western blot with anti-Mcd1
T1 sequence: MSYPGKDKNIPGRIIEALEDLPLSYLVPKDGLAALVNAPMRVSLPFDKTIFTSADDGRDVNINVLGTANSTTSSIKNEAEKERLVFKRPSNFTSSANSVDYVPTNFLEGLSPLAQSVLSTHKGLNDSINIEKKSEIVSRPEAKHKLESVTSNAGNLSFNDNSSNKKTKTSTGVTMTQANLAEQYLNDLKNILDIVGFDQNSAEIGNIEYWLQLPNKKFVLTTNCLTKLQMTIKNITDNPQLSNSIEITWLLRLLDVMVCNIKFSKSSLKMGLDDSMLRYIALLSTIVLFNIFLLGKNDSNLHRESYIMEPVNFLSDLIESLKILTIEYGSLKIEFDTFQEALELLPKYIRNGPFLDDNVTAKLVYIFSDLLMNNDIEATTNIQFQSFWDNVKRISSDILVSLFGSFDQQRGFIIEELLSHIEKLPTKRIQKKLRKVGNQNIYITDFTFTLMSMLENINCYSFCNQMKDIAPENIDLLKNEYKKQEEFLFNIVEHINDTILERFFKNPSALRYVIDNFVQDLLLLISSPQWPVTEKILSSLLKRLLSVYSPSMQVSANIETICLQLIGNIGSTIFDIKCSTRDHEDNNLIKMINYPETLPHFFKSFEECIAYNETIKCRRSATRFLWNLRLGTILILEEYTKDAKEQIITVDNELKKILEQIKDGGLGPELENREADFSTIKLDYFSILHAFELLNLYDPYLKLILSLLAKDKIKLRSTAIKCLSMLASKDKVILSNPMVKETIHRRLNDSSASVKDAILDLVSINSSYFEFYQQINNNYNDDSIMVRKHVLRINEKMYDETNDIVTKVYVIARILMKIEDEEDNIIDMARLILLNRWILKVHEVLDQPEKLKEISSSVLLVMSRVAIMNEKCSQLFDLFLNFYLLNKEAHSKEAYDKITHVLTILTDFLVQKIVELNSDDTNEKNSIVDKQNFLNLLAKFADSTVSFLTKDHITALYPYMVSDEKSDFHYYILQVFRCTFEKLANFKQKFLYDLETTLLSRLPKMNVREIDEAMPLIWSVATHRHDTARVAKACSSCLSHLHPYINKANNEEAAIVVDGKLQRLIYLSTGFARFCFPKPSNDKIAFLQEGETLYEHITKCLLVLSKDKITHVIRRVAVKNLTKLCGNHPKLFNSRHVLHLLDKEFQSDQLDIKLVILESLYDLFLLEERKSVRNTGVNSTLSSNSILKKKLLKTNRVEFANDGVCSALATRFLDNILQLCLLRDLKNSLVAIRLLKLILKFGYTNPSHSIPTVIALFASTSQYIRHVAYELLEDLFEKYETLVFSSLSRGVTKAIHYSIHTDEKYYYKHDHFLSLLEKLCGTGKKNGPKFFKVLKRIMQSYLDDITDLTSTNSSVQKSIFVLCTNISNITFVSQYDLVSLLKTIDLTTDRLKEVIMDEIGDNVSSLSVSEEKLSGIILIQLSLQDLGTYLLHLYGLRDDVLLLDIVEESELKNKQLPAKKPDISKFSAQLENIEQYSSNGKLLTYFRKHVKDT

Scc3-6HA (budding yeast) = target: T2, Scc3-6HA (budding yeast) (UniProt P40541); assay: co-IP; anti-HA immunoprecipitation of Scc3-6HA (wild type or mutant) from yeast lysates, mid-log cells; IPH150 or IPH50 buffer (50 mM Tris pH 8.0, 150/50 mM NaCl, 5 mM EDTA, 0.5% NP-40, 1 mM DTT), 4°C, protein A/G agarose, Western blot of partners; also in wpl1Δ strains and after depletion of Pds5-3V5-AID with 1 mM IAA
T2 sequence: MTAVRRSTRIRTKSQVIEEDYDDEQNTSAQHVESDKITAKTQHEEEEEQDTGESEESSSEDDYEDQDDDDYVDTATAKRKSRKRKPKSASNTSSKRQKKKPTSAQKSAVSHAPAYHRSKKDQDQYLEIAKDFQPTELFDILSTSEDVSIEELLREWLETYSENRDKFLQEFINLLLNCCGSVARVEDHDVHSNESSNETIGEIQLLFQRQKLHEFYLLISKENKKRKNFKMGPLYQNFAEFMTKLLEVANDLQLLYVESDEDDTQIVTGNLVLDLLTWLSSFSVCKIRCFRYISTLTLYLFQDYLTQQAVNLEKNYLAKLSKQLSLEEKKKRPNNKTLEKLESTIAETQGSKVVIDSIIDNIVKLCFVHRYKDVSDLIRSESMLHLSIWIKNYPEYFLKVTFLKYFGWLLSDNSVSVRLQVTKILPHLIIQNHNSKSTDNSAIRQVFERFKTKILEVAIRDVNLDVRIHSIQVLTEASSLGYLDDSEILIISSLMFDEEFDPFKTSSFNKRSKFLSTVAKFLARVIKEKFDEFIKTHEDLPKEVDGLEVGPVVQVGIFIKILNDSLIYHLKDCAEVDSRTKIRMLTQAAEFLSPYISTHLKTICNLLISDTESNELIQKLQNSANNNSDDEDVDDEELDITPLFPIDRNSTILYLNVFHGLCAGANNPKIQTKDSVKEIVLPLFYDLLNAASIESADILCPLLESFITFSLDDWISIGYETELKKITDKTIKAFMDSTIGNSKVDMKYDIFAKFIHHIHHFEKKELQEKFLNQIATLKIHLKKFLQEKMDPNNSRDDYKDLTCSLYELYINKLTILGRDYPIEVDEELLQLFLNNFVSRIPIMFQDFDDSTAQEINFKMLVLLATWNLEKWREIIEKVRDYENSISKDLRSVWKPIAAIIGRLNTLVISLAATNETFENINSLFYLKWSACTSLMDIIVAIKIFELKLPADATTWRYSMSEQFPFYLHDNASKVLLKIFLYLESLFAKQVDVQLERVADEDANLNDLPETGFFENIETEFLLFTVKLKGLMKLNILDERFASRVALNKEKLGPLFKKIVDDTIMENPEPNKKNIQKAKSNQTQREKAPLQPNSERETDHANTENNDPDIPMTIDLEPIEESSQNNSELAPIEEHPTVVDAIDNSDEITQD

B1: Mcd1 (protein, UniProt Q12158 1-566)
chain: MVTENPQRLTVLRLATNKGPLAQIWLASNMSNIPRGSVIQTHIAESAKEIAKASGCDDESGDNEYITLRTSGELLQGIVRVYSKQATFLLTDIKDTLTKISMLFKTSQKMTSTVNRLNTVTRVHQLMLEDAVTEREVLVTPGLEFLDDTTIPVGLMAQENSMERKVQGAAPWDTSLEVGRRFSPDEDFEHNNLSSMNLDFDIEEGPITSKSWEEGTRQSSRNFDTHENYIQDDDFPLDDAGTIGWDLGITEKNDQNNDDDDNSVEQGRRLGESIMSEEPTDFGFDLDIEKEAPAGNIDTITDAMTESQPKQTGTRRNSKLLNTKSIQIDEETENSESIASSNTYKEERSNNLLTPQPTNFTTKRLWSEITESMSYLPDPILKNFLSYESLKKRKIHNGREGSIEEPELNVSLNLTDDVISNAGTNDNSFNELTDNMSDFVPIDAGLNEAPFPEENIIDAKTRNEQTTIQTEKVRPTPGEVASKAIVQMAKILRKELSEEKEVIFTDVLKSQANTEPENITKREASRGFFDILSLATEGCIGLSQTEAFGNIKIDAKPALFERFINA
**Q.** B1 was tested. Which binding [1] did it give?
**A.** The binding was “binds”.

**Q.** What about the binding (Scc3-6HA (budding yeast)) of the same binder?
**A.** The binding was “binds”.
